# Test results reported in publication PMC3368869.
# Amino acid sequences for entries named in this document (tags omitted). A change or cut given only in a name is not applied to a line headed by its entry.
# UniProt Q9VJZ5: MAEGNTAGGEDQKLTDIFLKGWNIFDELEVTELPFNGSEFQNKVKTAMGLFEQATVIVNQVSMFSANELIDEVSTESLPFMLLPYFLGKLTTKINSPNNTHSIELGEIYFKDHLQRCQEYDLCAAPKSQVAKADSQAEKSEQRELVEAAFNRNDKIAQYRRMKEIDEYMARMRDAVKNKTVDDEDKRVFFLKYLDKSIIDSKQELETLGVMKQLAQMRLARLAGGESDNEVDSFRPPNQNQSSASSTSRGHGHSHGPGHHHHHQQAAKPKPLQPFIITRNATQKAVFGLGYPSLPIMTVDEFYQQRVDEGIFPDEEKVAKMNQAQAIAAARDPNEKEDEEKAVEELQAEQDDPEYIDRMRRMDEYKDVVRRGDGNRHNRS
# UniProt P23696: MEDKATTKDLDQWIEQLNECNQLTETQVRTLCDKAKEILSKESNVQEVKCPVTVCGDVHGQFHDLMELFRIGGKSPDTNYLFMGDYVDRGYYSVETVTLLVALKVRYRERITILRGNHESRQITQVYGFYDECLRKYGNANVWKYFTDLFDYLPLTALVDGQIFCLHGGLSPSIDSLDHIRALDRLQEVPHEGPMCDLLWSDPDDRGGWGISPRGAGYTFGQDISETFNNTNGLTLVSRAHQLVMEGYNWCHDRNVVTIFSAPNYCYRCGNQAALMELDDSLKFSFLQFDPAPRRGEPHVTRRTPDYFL
# Results are given in words; binding and its absence hold for the method and conditions named. Binding seen in cells or lysates may run through a third protein. For some assays here: A result given as binding can be weak or reduced; the word gives no strength.
# Assays:
# [1] = target: FLAG3-Tap42^WT (wild type Drosophila Tap42) (Drosophila melanogaster) (UniProt Q9VJZ5); test: co-IP; FLAG immunoprecipitation (anti-FLAG-agarose, overnight at 4°C) from clarified lysates of transfected Drosophila S2 cells; lysis buffer 20 mM Tris-HCl pH 8.0, 150 mM NaCl, 1% Igepal, protease inhibitors; Western blot with epitope tag antibodies
# [2] = target: FLAG3-Tap42^ED (phosphatase binding-defective mutant of Tap42, R152E K155D) (Drosophila melanogaster); test: as above
binding [1],binding [2],Molecule
binds,–,HA3-Mts (Drosophila PP2A catalytic subunit) (from UniProt P23696 1-309) (enzyme)
binds,no binding,"HA3-PP4 (Drosophila PP4 catalytic subunit) (enzyme, UniProt O76932 1-307) MSDYSDLDRQIEQLKRCEIIKENEVKALCAKAREILVEEGNVQRVDSPVTVCGDIHGQFYDLKELFKVGGDVPEKNYLFMGDFVDRGYYSVETFLLLLALKVRYPDRITLIRGNHESRQITQVYGFYDECLRKYGSTAVWRYCTEIFDYLSLSAIIDGKIFCVHGGLSPSIQYLDQIRSIDRKQEVPHDGPMCDLLWSDPEDQTGWGVSPRGAGYLFGSDVVSQFNRTNDIDMICRAHQLVMEGFKWHFNETVLTVWSAPNYCYRCGNVAAILELNEYLHRDFVIFEAAPQESRGIPSKKPQADYFL"
binds,no binding,"HA3-PPV (Drosophila PP6 catalytic subunit) (enzyme, UniProt Q27884 1-303) MGDVDKWIEDVKKCKYLPENELKKLCEMVCDILLEETNILPVSTPVTVCGDIHGQFYDLEQLFRTGGQVPHTNYIFMGDFVDRGYYSLETFTRLLTLKARYPSRITLLRGNHETRQITKVYGFFDECFSKYGNANGWKYCCKVFDLLTIAAIIDEEVLCVHGGLSPEIITLDQIRTIDRNGEIPYKGAFCDLVWSDPEDMEYWGQSPRGAGWLFGHNVTKDFMAINNLNLICRAHQLVNEGIKYMFDGKLVTVWSAPNYCYRCGNVAAILSFETAEKRQTKIFLAVPDAERVIPKQNTTPYFL"
